Record: PubChem BioAssay AID1053208 (Peter MacCallum Cancer Centre, 2014)
Screen: 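Synthetic lethal interactions between gene loss and doxorubicin in osteosarcoma cells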 (primary screen). Cells: mouse osteosarcoma cells, early-passage culture from an engineered mouse model of fibroblastic bone tumour. Reagents: siRNA pool against mouse genes, 40 nM. Duration: about 120 h (48 h before drug, then 72 h with drug). Challenge: doxorubicin 100 nM for 72 h, roughly 30-40% inhibitory dose. Measurement: 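Luminescent ATP signal taken as viability with or without 100 nM doxorubicin for 72 h; mean of two wells set against non-targeting siRNA and turned into robust z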. Scale: viability z-score with doxorubicin and doxorubicin viability vs non-targeting: higher = more viable cells under doxorubicin; viability z-score without drug: higher = more viable cells with knock-down alone; z-score of drug to no-drug ratio: higher = less drug sensitisation by knock-down. Rule for the call: 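a pool counts as active when its viability z-score with doxorubicin is -2 or below and its z-score without drug lies between -2 and 2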.
Shown is an unselected part of about 17,000 deposited reagents. 788 of them (4.7%) count as active. 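Calls rest on z-score classes alone; an extra cut-off of viability at most 70% of control was not applied to them.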 Reagents against one gene are numbered here.

| gene | reagent no. | combined z-score class | viability z-score with doxorubicin | viability z-score without drug | z-score of drug to no-drug ratio | doxorubicin viability vs non-targeting | Call |
| --- | --- | --- | --- | --- | --- | --- | --- |
| Adgrv1 (adhesion G protein-coupled receptor V1) | 1 | no change with or without drug | 0.67 | -1.18 | 1.8 | 1 | inactive |
| Lyrm1 (LYR motif containing 1) | 1 | low cell count with doxorubicin only | -4.72 | 1.52 | -5.4 | 0.52 | active |
| Mllt3 | 1 | no change with or without drug | -1.57 | 0.17 | -1.69 | 0.8 | inactive |
| Prl7a2 (prolactin family 7, subfamily a, member 2) | 1 | no change with or without drug | 0.22 | -0.34 | 0.56 | 0.96 | inactive |
| Or6c215 (olfactory receptor family 6 subfamily C member 215) | 1 | no change with or without drug | -0.45 | -0.84 | 0.22 | 0.9 | inactive |
| Eloc (elongin C) | 1 | no change with or without drug | -1.57 | -0.17 | -1.46 | 0.8 | inactive |
| Slc39a3 | 1 | no change with or without drug | 0 | 0.67 | -0.34 | 0.94 | inactive |
| Nfe2 (nuclear factor, erythroid derived 2) | 1 | no change with or without drug | 0.67 | 1.52 | -0.22 | 1 | inactive |
| 4930544G11Rik (RIKEN cDNA 4930544G11 gene) | 1 | high cell count without drug only | 1.35 | 2.02 | 0.11 | 1.06 | inactive |
| Chtf18 (CTF18, chromosome transmission fidelity factor 18) | 1 | no change with or without drug | -0.45 | -0.17 | -0.22 | 0.9 | inactive |
| Cyp2c54 (cytochrome P450, family 2, subfamily c, polypeptide 54) | 1 | no change with or without drug | 1.12 | -0.34 | 1.57 | 1.04 | inactive |
| Iffo2 (intermediate filament family orphan 2) | 1 | low cell count with doxorubicin only | -2.25 | -0.67 | -1.91 | 0.74 | active |
| Setmar (SET domain without mariner transposase fusion) | 1 | no change with or without drug | -0.67 | -1.18 | 0.22 | 0.88 | inactive |
| Ulk1 (unc-51 like kinase 1) | 1 | no change with or without drug | -0.79 | 0.84 | -1.24 | 0.87 | inactive |
| Bud13 (BUD13 homolog) | 1 | no change with or without drug | 0.67 | 0.17 | 0.67 | 1 | inactive |
| Cd163 (CD163 antigen) | 1 | high cell count without drug only | 1.46 | 2.87 | -0.22 | 1.07 | inactive |
| Or5an1 (olfactory receptor family 5 subfamily AN member 1) | 1 | no change with or without drug | -0.45 | -0.17 | -0.22 | 0.9 | inactive |
| Or5an1 (olfactory receptor family 5 subfamily AN member 1) | 2 | no change with or without drug | 0.11 | 0.51 | -0.11 | 0.95 | inactive |
| Prr14 (proline rich 14) | 1 | no change with or without drug | -0.34 | 0.84 | -0.79 | 0.91 | inactive |
| Cel (carboxyl ester lipase) | 1 | no change with or without drug | 0.79 | 0.84 | 0.34 | 1.01 | inactive |
| 9930038B18Rik (RIKEN cDNA 9930038B18 gene) | 1 | high cell count with doxorubicin only | 3.04 | 0.34 | 3.04 | 1.21 | inactive |
| Haus7 (HAUS augmin-like complex, subunit 7) | 1 | no change with or without drug | -0.22 | 1.18 | -0.9 | 0.92 | inactive |
| Tmem17 (transmembrane protein 17) | 1 | no change with or without drug | 0.9 | 0 | 1.01 | 1.02 | inactive |
| Tcerg1l (transcription elongation regulator 1-like) | 1 | no change with or without drug | 0.22 | 0.84 | -0.22 | 0.96 | inactive |
| Or8i2 (olfactory receptor family 8 subfamily I member 2) | 1 | no change with or without drug | 1.46 | 1.01 | 0.9 | 1.07 | inactive |
| Or4f47 (olfactory receptor family 4 subfamily F member 47) | 1 | no change with or without drug | -0.56 | -0.84 | 0.11 | 0.89 | inactive |
| Mxd4 (Max dimerization protein 4) | 1 | no change with or without drug | 1.35 | 0.84 | 0.9 | 1.06 | inactive |
| Or2a51 (olfactory receptor family 2 subfamily A member 51) | 1 | no change with or without drug | -0.9 | -1.18 | 0 | 0.86 | inactive |
| Zc2hc1c (zinc finger, C2HC-type containing 1C) | 1 | no change with or without drug | -0.56 | -1.18 | 0.34 | 0.89 | inactive |
| Krtap13-1 (keratin associated protein 13-1) | 1 | no change with or without drug | 0 | 0.17 | 0 | 0.94 | inactive |
| Rdh16 (retinol dehydrogenase 16) | 1 | no change with or without drug | -0.67 | 0.17 | -0.67 | 0.88 | inactive |
| Adk (adenosine kinase) | 1 | no change with or without drug | -0.11 | -0.51 | 0.34 | 0.93 | inactive |
| Necab3 (N-terminal EF-hand calcium binding protein 3) | 1 | no change with or without drug | 0.22 | -0.84 | 1.01 | 0.96 | inactive |
| Stx12 (syntaxin 12) | 1 | no change with or without drug | 0 | -0.67 | 0.56 | 0.94 | inactive |

Limited to “combined z-score class” (5 entries from above):
Setmar (SET domain without mariner transposase fusion) = no change with or without drug
Ulk1 (unc-51 like kinase 1) = no change with or without drug
Bud13 (BUD13 homolog) = no change with or without drug
Cd163 (CD163 antigen) = high cell count without drug only
Or5an1 (olfactory receptor family 5 subfamily AN member 1) #1 = no change with or without drug
